{"sequences": {"note": "Chains of the proteins cited; added tags and fusions are not shown. Lines headed by an entry give the natural chain unless they say otherwise; changes in a name come on top.", "UniProt P18054": "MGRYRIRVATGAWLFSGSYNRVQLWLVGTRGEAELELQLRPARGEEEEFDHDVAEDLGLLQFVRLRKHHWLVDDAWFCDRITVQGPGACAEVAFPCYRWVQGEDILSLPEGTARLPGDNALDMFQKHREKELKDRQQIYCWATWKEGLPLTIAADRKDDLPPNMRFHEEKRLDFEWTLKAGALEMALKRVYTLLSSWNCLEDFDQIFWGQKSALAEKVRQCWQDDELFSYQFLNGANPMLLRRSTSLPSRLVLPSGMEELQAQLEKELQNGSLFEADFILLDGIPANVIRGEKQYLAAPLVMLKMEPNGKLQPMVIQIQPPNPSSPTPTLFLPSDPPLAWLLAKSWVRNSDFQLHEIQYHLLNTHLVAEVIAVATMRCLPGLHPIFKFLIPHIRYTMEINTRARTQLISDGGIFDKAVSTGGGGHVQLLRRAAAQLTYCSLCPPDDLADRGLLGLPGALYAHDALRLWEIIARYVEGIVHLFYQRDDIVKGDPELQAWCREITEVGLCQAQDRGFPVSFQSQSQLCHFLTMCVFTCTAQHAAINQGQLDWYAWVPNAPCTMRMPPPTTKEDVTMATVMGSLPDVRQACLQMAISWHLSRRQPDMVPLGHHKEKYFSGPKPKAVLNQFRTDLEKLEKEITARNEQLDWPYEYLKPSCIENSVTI"}, "source": "PubChem BioAssay AID1671190", "about": "(National Center for Advancing Translational Sciences (NCATS), 2021)", "note": "Hit rate of the full screen: of about 580,000 compounds, about 6,100 (1.1%) were called active. The inconclusive results got no clear call from the source; some entries with a clear call stand among them for comparison. Calls follow the shape of the dose curve; as a rule, active = well fitted inhibition curve with a large enough effect; inconclusive = small, poorly fitted or top-dose-only effect, or another doubt; inactive = no such curve, though single readings can be large or run the other way. A potency beside an inconclusive call is a rough fit, not a confirmed value. % is scaled to controls: 0 for no effect and ±100 for the full control effect; potency is read from the fitted curve at half-maximal effect."}
{"target": "Polyunsaturated fatty acid lipoxygenase ALOX12 (Homo sapiens) (UniProt P18054)", "assay": "Primary qHTS assay for inhibitors of human arachidonate 12S-lipoxygenase (ALOX12): Round 2", "conditions": "purified 12hLO, xylenol orange hydroperoxide absorbance; activity change, negative = inhibition: at 108 µM (top of the series) unless noted", "method_in_brief": "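Purified human 12hLO (150 nM final) in 25 mM Hepes, 0.01% Triton X-100, pH 7.0 was preincubated 15 min at room temperature with compound. Then 40 uM arachidonic acid was added, 30 min. Hydroperoxide was read by Fe-XO absorbance ratio 573/405 nm.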"}
{"molecule": "COc1ccc(CNC(=O)CCCn2nc(C)c3c(C)n(-c4ccccc4)nc3c2=O)cc1", "Potency": "inactive"}
{"molecule": "COC(=O)CN1CCN(C(c2ccccc2)c2ccccc2)CC1", "Potency": "inactive"}
{"molecule": "Cc1ccc(OCCCCNC2CCCC(C)C2C)c(C)c1", "note": "(stereo unspecified)", "Potency": "inconclusive: 7.94 µM [inhibitor, full curve, poor fit]"}
{"molecule": "Cc1ccnc(-n2sc3ccccc3c2=O)n1", "Potency": "inconclusive: 25.1 µM [inhibitor, partial curve, poor fit]"}
{"molecule": "COc1ccc(CN(C)C(=O)CCCNC(=O)c2ccc(Cl)cc2)cc1", "Potency": "inconclusive: 63.1 µM [inhibitor, partial curve, poor fit]"}
{"molecule": "O=C(NCC(c1ccco1)N1CCc2ccccc21)c1ccccc1", "note": "(stereo unspecified)", "Potency": "inconclusive: 39.8 µM [inhibitor, partial curve, poor fit]"}
{"molecule": "COc1ccc(CCNS(=O)(=O)c2cc(-c3cc(C)no3)ccc2C)cc1OC", "Potency": "inconclusive: 112 µM [inhibitor, partial curve, poor fit]"}
{"molecule": "O=C(NCc1ccc(F)cc1)C1(CCO)CC12CCOCC2", "note": "(stereo unspecified)", "Potency": "inactive"}
{"molecule": "CCOc1ccc(C(=O)NC(=S)Nc2ccccc2N2CCC(C)CC2)cc1[N+](=O)[O-]", "Potency": "active: 35.5 µM"}
{"molecule": "CCCN(CC1CCOC1)C(=O)NCc1ccco1", "note": "(stereo unspecified)", "Potency": "inactive"}
{"molecule": "CCn1c(-c2ccccc2F)nc2cc(NC(C)=O)cc(C(=O)N3CCNC(=O)C3CC(=O)OC)c21", "note": "(stereo unspecified)", "Potency": "inconclusive: 100 µM [inhibitor, single point]"}
{"molecule": "OCCCNc1nc(-c2ccccc2)nc2c1oc1ccccc12", "Potency": "inconclusive: 20 µM [inhibitor, partial curve, poor fit]"}
{"molecule": "CCOC(=O)CSc1nc2c(c(=O)[nH]c(=O)n2C)n1Cc1ccccc1", "Potency": "inconclusive: 2.24 µM [inhibitor, partial curve, poor fit]"}
{"molecule": "Cc1ccccc1Cc1c(C)nc(N2CCN(Cc3ccccc3)CC2)[nH]c1=O", "Potency": "inactive"}
{"molecule": "COc1ccc(O)c(-c2cc(-c3cccs3)[nH]n2)c1", "Potency": "inconclusive: 44.7 µM [inhibitor, partial curve, poor fit]"}
{"molecule": "CCc1ccc(CN2CCc3nc(N4CCN(CC)CC4)ncc3C2)cc1", "Potency": "inconclusive: 39.8 µM [inhibitor, partial curve, poor fit]"}
{"molecule": "CC(=O)Nc1ccc(S(=O)(=O)N[C@H]2CO[C@H]3[C@@H]2OC[C@H]3OC(=O)Nc2ccc(Oc3ccccc3)cc2)cc1", "Potency": "inconclusive: 56.2 µM [inhibitor, partial curve, poor fit]"}
{"molecule": "CNC(=S)N/N=C(/C)c1ccc(C)c([N+](=O)[O-])c1", "Potency": "inconclusive: 44.7 µM [inhibitor, partial curve, poor fit]"}
{"molecule": "Cc1nn(C)c(C)c1CNCc1ccnc(N2CCOCC2)c1", "Potency": "active: 11.2 µM"}
{"molecule": "CN(C)CCC(=O)N1c2ccccc2Sc2ccc(C(F)(F)F)cc21", "Potency": "inconclusive: 56.2 µM [inhibitor, partial curve, poor fit]"}
{"molecule": "CCCNC(=O)CN(C)C(=O)NC(c1ccc(C(C)C)cc1)C(C)C", "note": "(stereo unspecified)", "Potency": "inactive"}
{"molecule": "Cc1cc(Nc2ccc(Cl)cc2)nc(NCc2ccccc2)n1", "Potency": "inconclusive: 50.1 µM [inhibitor, partial curve, poor fit]"}
{"molecule": "CC(NC(=O)c1ccco1)c1ccc(-c2ccccc2)cc1", "note": "(stereo unspecified)", "Potency": "inconclusive: 31.6 µM [inhibitor, partial curve, poor fit]"}
{"molecule": "O=C1NCc2ccccc2CC12CCCN2Cc1ccc(Br)cc1", "note": "(stereo unspecified)", "Potency": "inconclusive: 56.2 µM [inhibitor, partial curve, poor fit]"}
{"molecule": "Cn1nc(C(=O)N2CCC3(CC2)N=C(c2ccccc2)NO3)c2ccccc21", "Potency": "inactive"}
{"molecule": "O=C(c1cccn(Cc2ccc(C(F)(F)F)cc2)c1=O)N1CCOCC1", "Potency": "inactive"}
{"molecule": "C=CCOc1cccc(C(c2c[nH]c3ccccc23)c2c[nH]c3ccccc23)c1", "Potency": "inconclusive: 44.7 µM [inhibitor, partial curve, poor fit]"}
{"molecule": "CCOc1cccc(C=NNc2ccc(S(=O)(=O)Nc3ccccc3C(=O)O)cc2[N+](=O)[O-])c1O", "Potency": "inconclusive: 39.8 µM [inhibitor, partial curve, poor fit]"}
{"molecule": "Cc1ccc(CO/N=C\\Cc2snc(Sc3ncc(C(F)(F)F)cc3Cl)c2C#N)cc1", "Potency": "inconclusive: 31.6 µM [inhibitor, single point]"}
{"molecule": "CSc1ccc(C2c3c(oc4cc(C)cc(C)c4c3=O)C(=O)N2Cc2ccco2)cc1", "note": "(stereo unspecified)", "Potency": "inconclusive: 50.1 µM [inhibitor, partial curve, poor fit]"}
{"molecule": "CC(=O)Nc1ccc(N(C(=O)Cn2nnc3ccccc32)C(C(=O)NC2CCCC2)c2ccc(O)c(O)c2)cc1", "note": "(stereo unspecified)", "Potency": "inconclusive: 15.8 µM [inhibitor, partial curve, poor fit]"}
{"molecule": "CSc1ccc(C2NC(=O)c3ccccc3N2)cc1", "note": "(stereo unspecified)", "Potency": "inconclusive: 11.2 µM [inhibitor, partial curve, poor fit]"}
{"molecule": "CC(C)c1ccc(S(=O)(=O)Nc2ccc(O)c(Sc3ncn[nH]3)c2)cc1", "Potency": "inconclusive: 50.1 µM [inhibitor, partial curve, poor fit]"}
{"molecule": "Cc1c(Cl)c([N+](=O)[O-])nn1CC(=O)Nc1ccc2c(c1)OCO2", "Potency": "inconclusive: 1.58 µM [inhibitor, full curve]"}
{"molecule": "CCNC(=O)c1cc2c(c(-c3cccc(-c4cccc(C(=O)N(C)C)c4)c3)n1)[C@@H](CCO)N(S(=O)C(C)(C)C)C2", "note": "(stereo partly specified)", "Potency": "inconclusive: 50.1 µM [inhibitor, partial curve, poor fit]"}
{"molecule": "CCN1C(=O)/C(=C\\c2cn(CCC#N)nc2-c2ccc(F)cc2)SC1=S", "Potency": "inconclusive: 44.7 µM [inhibitor, partial curve, poor fit]"}
{"molecule": "O=C(c1ccncc1)N1CCC2(COc3ncccc3S(=O)(=O)N2)C1", "note": "(stereo unspecified)", "activity change, negative = inhibition": "inactive: 3.98% [at 6.33 µM]"}
{"molecule": "C[C@@]12CCC=C[C@H]1[C@H](c1ccccc1Br)N(Cc1ccccc1)C2=O", "Potency": "inconclusive: 89.1 µM [inhibitor, single point]"}
{"molecule": "Brc1n[nH]c(Br)n1", "Potency": "inactive"}
{"molecule": "CCCOc1ccc(-c2nc(C#N)c(N3CCN(C)CC3)o2)cc1", "Potency": "inconclusive: 44.7 µM [inhibitor, partial curve, poor fit]"}
{"molecule": "Cc1ccc(N(CC(=O)Nc2ccc(Cl)cc2)S(=O)(=O)c2cccc3nonc23)cc1", "Potency": "inconclusive: 89.1 µM [inhibitor, partial curve, poor fit]"}
{"molecule": "Cn1nnnc1SCC(=O)c1ccc(Br)s1", "Potency": "inactive"}
{"molecule": "Nc1nc(=S)[nH]c2c1C1(CCCC1)Cc1ccccc1-2", "Potency": "inconclusive: 44.7 µM [inhibitor, partial curve]"}
{"molecule": "CCn1nc(C(=O)Nc2cc(OC)c(OC)c(OC)c2)c2ccccc2c1=O", "Potency": "inconclusive: 39.8 µM [inhibitor, partial curve, poor fit]"}
{"molecule": "Cc1c(CCC(=O)NCCCn2ccnc2)c(=O)oc2cc3oc4c(c3cc12)CCCC4", "Potency": "inactive"}
{"molecule": "Cc1cc2nc(-c3nnnn3C3CCCCC3)c(=O)[nH]c2cc1C", "Potency": "inconclusive: 112 µM [inhibitor, single point]"}
{"molecule": "COc1cc(C(=O)Nc2cnc3ccccc3c2)ccc1C", "Potency": "inconclusive: 35.5 µM [inhibitor, single point]"}
{"molecule": "Cc1cc(NS(=O)(=O)c2ccc(NC(=S)NC(=O)c3ccc(Cl)cc3Cl)cc2)no1", "Potency": "active: 31.6 µM"}
{"molecule": "COc1ccc(C2C3=C(CCCC3=O)Nc3cc(OC)cc(OC)c32)cc1", "note": "(stereo unspecified)", "Potency": "inconclusive: 56.2 µM [inhibitor, partial curve, poor fit]"}
{"molecule": "COc1cccc(CC2(CO)CCCN(Cc3cc4ccccc4[nH]3)C2)c1", "note": "(stereo unspecified)", "Potency": "inconclusive: 44.7 µM [inhibitor, partial curve, poor fit]"}
{"molecule": "CCC(C)SSc1ncc[nH]1", "note": "(stereo unspecified)", "Potency": "active: 19.3 µM"}
{"molecule": "O=C(c1cccc(F)c1)N1CCC[C@@]2(CCN(Cc3ccccc3)C2)C1", "Potency": "inconclusive: 28.2 µM [inhibitor, single point]"}
{"molecule": "C=CCn1c(=O)c2ccccc2n2c(SCC(=O)N3CCCc4ccccc43)nnc12", "Potency": "inconclusive: 35.5 µM [inhibitor, partial curve, poor fit]"}
{"molecule": "COc1ccc(-c2nc3c(c(SCC(=O)N4CCCCC4)n2)Cc2cc(Cl)ccc2O3)cc1", "Potency": "inactive"}
{"molecule": "S=C1NC2(CCCCCC2)NN1c1ccccc1", "Potency": "active: 1.41 µM"}
{"molecule": "CO/N=C/NC(=O)c1ccc([N+](=O)[O-])c(CS(=O)(=O)c2ccc(Cl)cc2)c1", "Potency": "inactive"}
{"molecule": "O=C(CN1c2cccc3cccc(c23)S1(=O)=O)Nc1ccccc1Br", "Potency": "inconclusive: 141 µM [inhibitor, single point]"}
{"molecule": "O=C(c1cccc(Oc2ccc([N+](=O)[O-])cc2Cl)c1)N1CCCCC1", "Potency": "inactive"}
{"molecule": "CC(C)Oc1cc(O)c2c(=O)c(-c3ccc(O)cc3)coc2c1", "Potency": "inactive"}
{"molecule": "CN(C)c1ccc(CNC(=O)Cn2c(=O)oc3cc(S(=O)(=O)N4CCCCCC4)ccc32)cc1", "Potency": "inconclusive: 126 µM [inhibitor, partial curve, poor fit]"}
{"molecule": "O=C1CC(c2ccccc2)N(C(=O)CNC(=O)c2n[nH]c3ccccc23)CCCCCCN1", "note": "(stereo unspecified)", "Potency": "inactive"}
{"molecule": "COC(=O)CNC(=O)CSc1nc2ccccc2nc1C", "Potency": "inactive"}
{"molecule": "COc1ccc2c(CSc3nc4nc(C)cc(C)n4n3)cc(=O)oc2c1", "Potency": "inconclusive: 44.7 µM [inhibitor, partial curve, poor fit]"}
{"molecule": "COc1ccc(-c2cn(C)c(=O)n3cc(COc4ccccc4)nc23)cn1", "Potency": "inactive"}
{"molecule": "O=C(c1ccc(S(=O)(=O)N2CCCC2)cc1)N1CCCCC1", "Potency": "inactive"}
{"molecule": "N#CC1(NC(=O)COc2cccc(C(F)(F)F)c2)CCCC1", "Potency": "inconclusive: 35.5 µM [inhibitor, partial curve, poor fit]"}
